Measured values from PubChem BioAssay AID1745845 (National Center for Advancing Translational Sciences (NCATS), 2022).
The whole screen tested about 360,000 compounds, of which about 2,600 (0.72%) were called active. Listed are the inconclusive results; actives and inactives stand elsewhere. Calls follow the shape of the dose curve; as a rule, active = well fitted inhibition curve with a large enough effect; inconclusive = small, poorly fitted or top-dose-only effect; inactive = no such curve, though single readings can be large or run the other way.

Experiment: Primary qHTS for Inhibitors of ATXN expression; also: nearly all actives have a fitted effect of over 55% in size
Settings: HEK-293 ATXN2-luciferase reporter, luminescence, 24 h
Potency is read from the fitted curve at half-maximal effect.

Row | Compound | Potency
1 | CCCCn1nnnc1C(c1cc2ccccc2o1)N1CCC(n2c(=O)[nH]c3ccccc32)CC1 (stereo not drawn) | inconclusive: 39.8 µM
2 | O=c1[nH]c2ccccc2n1C1CCN(C(c2ccccc2)c2nnnn2C2CCCCC2)CC1 (stereo not drawn) | inconclusive: 28.2 µM
3 | COc1cc(C(=O)NCC2(N(C)C)CCCCC2)ccc1OC(F)F | inconclusive: 17.8 µM
4 | CC(C)(C)n1nnnc1C(c1ccccc1OC(F)(F)F)N1CCC(n2c(=O)[nH]c3ccccc32)CC1 (stereo not drawn) | inconclusive: 39.8 µM
5 | O=c1[nH]c2ccccc2n1C1CCN(C(c2ccccc2OC(F)(F)F)c2nnnn2C2CCCC2)CC1 (stereo not drawn) | inconclusive: 39.8 µM
6 | O=[N+]([O-])c1cc([N+](=O)[O-])c(NCC2CCS(=O)(=O)C2)c([N+](=O)[O-])c1 (stereo not drawn) | inconclusive: 37.7 µM
7 | CCCCn1nnnc1C(c1cccc2ccccc12)N1CCC(n2c(=O)[nH]c3ccccc32)CC1 (stereo not drawn) | inconclusive: 39.8 µM
8 | CCCCn1nnnc1C(c1ccccc1OC(F)(F)F)N1CCC(n2c(=O)[nH]c3ccccc32)CC1 (stereo not drawn) | inconclusive: 22.4 µM
9 | CCCCn1nnnc1C(c1ccnc2ccccc12)N1CCC(n2c(=O)[nH]c3ccccc32)CC1 (stereo not drawn) | inconclusive: 28.2 µM
10 | COc1cccc(C(c2nnnn2C(C)(C)C)N2CCC(n3c(=O)[nH]c4ccccc43)CC2)c1OC (stereo not drawn) | inconclusive: 39.8 µM
11 | O=c1[nH]c2ccccc2n1C1CCN(C(c2cccs2)c2nnnn2C2CCCC2)CC1 (stereo not drawn) | inconclusive: 39.8 µM
12 | CCCCn1nnnc1C(c1cccc(OC)c1OC)N1CCC(n2c(=O)[nH]c3ccccc32)CC1 (stereo not drawn) | inconclusive: 39.8 µM
13 | O=c1[nH]c2ccccc2n1C1CCN(C(c2ccccc2)c2nnnn2C2CCCC2)CC1 (stereo not drawn) | inconclusive: 39.8 µM
14 | Cc1cc(N(CCCl)CCCl)ccc1C=O | inconclusive: 5.32 µM
15 | CC(C)(C)n1nnnc1C(c1cccc2ccccc12)N1CCC(n2c(=O)[nH]c3ccccc32)CC1 (stereo not drawn) | inconclusive: 39.8 µM
16 | O=c1[nH]c2ccccc2n1C1CCN(C(c2ccnc3ccccc23)c2nnnn2C2CCCCC2)CC1 (stereo not drawn) | inconclusive: 35.5 µM
17 | Cn1c(=O)[nH]cc(N(CCCl)CCCl)c1=O | inconclusive: 7.94 µM
18 | O=c1[nH]c2ccccc2n1C1CCN(C(c2cc3ccccc3o2)c2nnnn2C2CCCC2)CC1 (stereo not drawn) | inconclusive: 31.6 µM
